Reference: PubChem BioAssay AID743317 (Broad Institute, 2014)
This list was built around the results that the source calls inconclusive (neither active nor inactive); the mix of calls is not that of the screen. Activity calls are given as the source filed them.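 Rule for the calls: active = fitted curve reaches 40% activation at or below the top valid dose, and every replicate test is called active; inconclusive = replicate tests disagree, some active and some inactive; inactive = all replicate tests inactive, including activity in the wrong direction.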

The chains behind the UniProt entries cited, without tags or fusion partners. Where a name states a change or a piece, a line headed by the entry shows the natural chain unless it says otherwise.
UniProt Q9NZ08: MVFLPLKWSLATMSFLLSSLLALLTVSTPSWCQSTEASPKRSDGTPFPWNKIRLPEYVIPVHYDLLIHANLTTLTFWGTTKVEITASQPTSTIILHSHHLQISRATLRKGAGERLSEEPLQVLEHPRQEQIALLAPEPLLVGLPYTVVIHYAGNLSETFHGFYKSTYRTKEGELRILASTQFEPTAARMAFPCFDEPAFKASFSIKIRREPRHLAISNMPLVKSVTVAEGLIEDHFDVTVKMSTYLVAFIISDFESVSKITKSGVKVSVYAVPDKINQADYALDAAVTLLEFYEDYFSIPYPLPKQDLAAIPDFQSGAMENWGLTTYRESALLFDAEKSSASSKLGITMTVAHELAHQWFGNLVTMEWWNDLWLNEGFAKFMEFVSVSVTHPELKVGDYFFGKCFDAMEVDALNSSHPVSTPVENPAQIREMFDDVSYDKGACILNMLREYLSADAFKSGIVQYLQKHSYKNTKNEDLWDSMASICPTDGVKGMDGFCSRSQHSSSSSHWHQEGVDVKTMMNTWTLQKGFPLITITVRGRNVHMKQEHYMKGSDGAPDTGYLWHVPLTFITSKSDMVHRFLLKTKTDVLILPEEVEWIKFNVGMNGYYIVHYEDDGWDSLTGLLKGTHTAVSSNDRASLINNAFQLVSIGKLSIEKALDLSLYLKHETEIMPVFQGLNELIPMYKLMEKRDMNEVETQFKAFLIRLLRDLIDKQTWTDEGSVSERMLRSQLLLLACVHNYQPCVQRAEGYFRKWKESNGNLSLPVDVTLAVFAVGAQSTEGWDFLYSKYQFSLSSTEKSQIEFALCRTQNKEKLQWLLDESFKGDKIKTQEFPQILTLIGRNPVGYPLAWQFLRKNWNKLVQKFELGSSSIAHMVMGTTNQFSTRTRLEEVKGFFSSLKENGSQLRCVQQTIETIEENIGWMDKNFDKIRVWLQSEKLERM

Target: Endoplasmic reticulum aminopeptidase 1 (Homo sapiens) (UniProt Q9NZ08)
Test: ERAP1 aminopeptidase activity change, dose response, biochemical, fluorescence, cherry-pick (AID 743317)
Settings: ERAP1 enzyme, Leu-AMC fluorescence, 60 min; at 11 µM (top of the series) unless noted

Row | SMILES | activity increase (activation)
1 | COC(=O)[C@H]1[C@H](CO)[C@H]2Cn3c(ccc(/C=C/c4ccccc4)c3=O)[C@@H]1N2C(=O)C1CCC1 | inconclusive: -81.5%
2 | N#Cc1c(N2CCNCC2)nc(-c2ccco2)c2c1CCCC2 | inactive: -51.7%
3 | O=c1ccc2cc(O[C@@H]3O[C@H](CO)[C@@H](O)[C@H](O)[C@H]3O)c(O)cc2o1 | inactive: -98.9%
4 | COC(=O)[C@H]1[C@H](CO)[C@H]2Cn3c(ccc(/C=C/c4ccccc4)c3=O)[C@@H]1N2CC1CCCC1 | inconclusive: -33.3%
5 | CCN(CCCl)c1cc(CN(C)C)cc(NC(=O)c2ccc(C(=O)Nc3cc(CN(C)C)cc(N(CC)CCCl)c3)cc2)c1 | inactive: -76%
6 | COC(=O)[C@@H]1[C@@H](CO)[C@@H]2Cn3c(ccc(/C=C/c4ccccc4)c3=O)[C@H]1N2C(=O)C1CCC1 | inconclusive: -54.3% [at 5.6 µM]
